Data taken from patent US11311625B2, “Peptide-based multiple-drug delivery vehicle” (priority 2015, dated 2022).
At least one peptide structure holds a part that was inferred or is arguable (an end, a ring closure or a residue).

System: HCT 116 human colorectal carcinoma cells
Assay: XTT growth inhibition assay, HCT 116
Format: cell-based
Conditions: 10 μM, 72 h incubation

`CC[C@@]1(OC(=O)NCCCC(=O)N[C@H](Cc2ccccc2)C(=O)N[C@H]2CSSCCN(CC(N)=O)C(=O)[C@H](Cc3ccccc3)NC(=O)[C@H]([C@@H](C)O)NC(=O)[C@H](CCCCN)NC(=O)[C@@H](Cc3c[nH]c4ccccc34)NC(=O)[C@H](Cc3c[nH]c4ccccc34)NC(=O)[C@H](Cc3ccccc3)NC2=O)C(=O)OCc2c1cc1n(c2=O)Cc2cc3ccccc3nc2-1` [conjugate 1b] was tested, and the “survival of HCT-116 cell line” value was “significantly inhibited”.
